The list shows a part of the results, in another mix than the full data.
Compound: COC(=O)C#Cc1ccccc1 [methyl 3-phenylpropiolate]
Test: log2 ratio of iodoacetamide-alkyne labeling of the cysteine site, DMSO over compound (competition); higher = stronger covalent engagement of the cysteine by the compound, active = 1 or more
Conditions: 500 µM; treatment time 1 h; system: HEK293T cell lysate
Outline: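 After 1 h at ambient temperature with vehicle or electrophile (500 µM), HEK293T lysate (2 mg/mL) was labelled for 1 h with iodoacetamide alkyne and clicked to sCIP-TMT reagents. Pooled samples were trypsin-digested overnight at 37 °C, streptavidin-enriched, acid-eluted and analysed by Orbitrap Eclipse LC-MS/MS with FAIMS, then quantified in FragPipe over three replicates with duplicate channels. A cysteine's log2 competition ratio is its mean control-channel over mean compound-channel reporter intensity. Cysteines quantified in only one replicate were not included.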

Sequences of proteins named here, by UniProt entry; tags and fusion partners are left off. A change or cut given only in a name is not applied to a line headed by its entry.
UniProt Q9P2J5: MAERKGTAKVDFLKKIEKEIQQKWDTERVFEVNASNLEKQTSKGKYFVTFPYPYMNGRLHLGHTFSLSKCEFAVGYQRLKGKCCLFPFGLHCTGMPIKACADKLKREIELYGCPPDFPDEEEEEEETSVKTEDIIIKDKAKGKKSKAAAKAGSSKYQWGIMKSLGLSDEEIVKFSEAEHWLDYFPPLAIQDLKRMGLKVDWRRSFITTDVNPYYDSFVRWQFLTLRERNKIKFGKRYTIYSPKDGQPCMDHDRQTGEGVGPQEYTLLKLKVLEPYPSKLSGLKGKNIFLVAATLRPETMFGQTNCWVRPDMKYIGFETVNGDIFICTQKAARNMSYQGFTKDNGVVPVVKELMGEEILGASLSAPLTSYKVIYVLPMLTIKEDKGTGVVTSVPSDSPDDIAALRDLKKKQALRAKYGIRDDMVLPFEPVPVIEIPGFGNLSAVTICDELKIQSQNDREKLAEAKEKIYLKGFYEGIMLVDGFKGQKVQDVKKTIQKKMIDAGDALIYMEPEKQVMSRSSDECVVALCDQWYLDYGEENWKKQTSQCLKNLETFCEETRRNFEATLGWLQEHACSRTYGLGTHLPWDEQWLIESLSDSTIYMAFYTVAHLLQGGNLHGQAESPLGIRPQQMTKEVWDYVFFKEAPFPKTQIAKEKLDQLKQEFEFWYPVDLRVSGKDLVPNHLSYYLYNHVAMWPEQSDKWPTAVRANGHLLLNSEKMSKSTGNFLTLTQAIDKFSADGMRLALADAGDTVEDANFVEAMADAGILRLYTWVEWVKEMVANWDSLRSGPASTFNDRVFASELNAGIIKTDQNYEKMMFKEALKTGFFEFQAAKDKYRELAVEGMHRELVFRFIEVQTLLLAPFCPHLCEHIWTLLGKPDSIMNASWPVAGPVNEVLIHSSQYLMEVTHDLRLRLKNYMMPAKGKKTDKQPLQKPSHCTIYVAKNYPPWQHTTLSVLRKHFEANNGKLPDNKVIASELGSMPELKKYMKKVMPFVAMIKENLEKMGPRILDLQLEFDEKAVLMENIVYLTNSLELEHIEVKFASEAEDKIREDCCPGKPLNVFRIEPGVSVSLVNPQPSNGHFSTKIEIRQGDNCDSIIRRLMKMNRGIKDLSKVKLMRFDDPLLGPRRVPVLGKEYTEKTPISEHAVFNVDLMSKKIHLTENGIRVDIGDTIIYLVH
UniProt Q9UHB6: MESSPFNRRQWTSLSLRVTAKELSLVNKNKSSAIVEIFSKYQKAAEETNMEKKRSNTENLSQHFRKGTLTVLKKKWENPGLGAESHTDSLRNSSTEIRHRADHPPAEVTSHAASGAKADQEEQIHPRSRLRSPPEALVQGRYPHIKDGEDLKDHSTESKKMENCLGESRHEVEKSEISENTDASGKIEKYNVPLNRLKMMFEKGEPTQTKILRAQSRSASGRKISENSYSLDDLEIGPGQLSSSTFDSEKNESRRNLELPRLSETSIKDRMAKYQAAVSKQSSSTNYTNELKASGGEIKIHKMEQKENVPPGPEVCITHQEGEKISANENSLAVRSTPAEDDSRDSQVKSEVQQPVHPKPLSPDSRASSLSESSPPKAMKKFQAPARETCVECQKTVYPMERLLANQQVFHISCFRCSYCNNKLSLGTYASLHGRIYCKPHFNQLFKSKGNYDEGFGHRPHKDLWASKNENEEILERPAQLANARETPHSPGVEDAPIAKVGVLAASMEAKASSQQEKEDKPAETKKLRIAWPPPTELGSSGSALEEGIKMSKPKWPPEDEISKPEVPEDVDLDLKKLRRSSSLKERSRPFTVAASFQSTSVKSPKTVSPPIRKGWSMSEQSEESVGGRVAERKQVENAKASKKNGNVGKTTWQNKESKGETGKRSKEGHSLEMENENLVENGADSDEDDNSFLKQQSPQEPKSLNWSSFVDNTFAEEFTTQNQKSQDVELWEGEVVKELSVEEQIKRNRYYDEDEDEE
UniProt Q9NVP2, whole entry, looked up: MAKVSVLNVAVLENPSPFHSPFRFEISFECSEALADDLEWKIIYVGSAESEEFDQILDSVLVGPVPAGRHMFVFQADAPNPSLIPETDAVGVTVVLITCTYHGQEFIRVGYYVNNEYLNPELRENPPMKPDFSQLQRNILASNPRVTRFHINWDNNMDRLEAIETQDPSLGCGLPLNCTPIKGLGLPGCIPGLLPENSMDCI
UniProt Q9NW64: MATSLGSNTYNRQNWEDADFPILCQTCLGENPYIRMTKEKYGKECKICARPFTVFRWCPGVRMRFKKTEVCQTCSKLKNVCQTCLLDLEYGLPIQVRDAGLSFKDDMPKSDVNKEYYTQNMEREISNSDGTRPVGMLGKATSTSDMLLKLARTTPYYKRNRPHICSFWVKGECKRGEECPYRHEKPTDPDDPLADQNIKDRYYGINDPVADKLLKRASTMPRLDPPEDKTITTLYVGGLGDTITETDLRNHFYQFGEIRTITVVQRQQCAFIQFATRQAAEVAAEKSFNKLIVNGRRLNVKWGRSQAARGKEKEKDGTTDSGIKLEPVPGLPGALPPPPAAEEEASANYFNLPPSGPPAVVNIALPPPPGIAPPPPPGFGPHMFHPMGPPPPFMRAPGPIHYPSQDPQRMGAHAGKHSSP
UniProt Q9P2E9: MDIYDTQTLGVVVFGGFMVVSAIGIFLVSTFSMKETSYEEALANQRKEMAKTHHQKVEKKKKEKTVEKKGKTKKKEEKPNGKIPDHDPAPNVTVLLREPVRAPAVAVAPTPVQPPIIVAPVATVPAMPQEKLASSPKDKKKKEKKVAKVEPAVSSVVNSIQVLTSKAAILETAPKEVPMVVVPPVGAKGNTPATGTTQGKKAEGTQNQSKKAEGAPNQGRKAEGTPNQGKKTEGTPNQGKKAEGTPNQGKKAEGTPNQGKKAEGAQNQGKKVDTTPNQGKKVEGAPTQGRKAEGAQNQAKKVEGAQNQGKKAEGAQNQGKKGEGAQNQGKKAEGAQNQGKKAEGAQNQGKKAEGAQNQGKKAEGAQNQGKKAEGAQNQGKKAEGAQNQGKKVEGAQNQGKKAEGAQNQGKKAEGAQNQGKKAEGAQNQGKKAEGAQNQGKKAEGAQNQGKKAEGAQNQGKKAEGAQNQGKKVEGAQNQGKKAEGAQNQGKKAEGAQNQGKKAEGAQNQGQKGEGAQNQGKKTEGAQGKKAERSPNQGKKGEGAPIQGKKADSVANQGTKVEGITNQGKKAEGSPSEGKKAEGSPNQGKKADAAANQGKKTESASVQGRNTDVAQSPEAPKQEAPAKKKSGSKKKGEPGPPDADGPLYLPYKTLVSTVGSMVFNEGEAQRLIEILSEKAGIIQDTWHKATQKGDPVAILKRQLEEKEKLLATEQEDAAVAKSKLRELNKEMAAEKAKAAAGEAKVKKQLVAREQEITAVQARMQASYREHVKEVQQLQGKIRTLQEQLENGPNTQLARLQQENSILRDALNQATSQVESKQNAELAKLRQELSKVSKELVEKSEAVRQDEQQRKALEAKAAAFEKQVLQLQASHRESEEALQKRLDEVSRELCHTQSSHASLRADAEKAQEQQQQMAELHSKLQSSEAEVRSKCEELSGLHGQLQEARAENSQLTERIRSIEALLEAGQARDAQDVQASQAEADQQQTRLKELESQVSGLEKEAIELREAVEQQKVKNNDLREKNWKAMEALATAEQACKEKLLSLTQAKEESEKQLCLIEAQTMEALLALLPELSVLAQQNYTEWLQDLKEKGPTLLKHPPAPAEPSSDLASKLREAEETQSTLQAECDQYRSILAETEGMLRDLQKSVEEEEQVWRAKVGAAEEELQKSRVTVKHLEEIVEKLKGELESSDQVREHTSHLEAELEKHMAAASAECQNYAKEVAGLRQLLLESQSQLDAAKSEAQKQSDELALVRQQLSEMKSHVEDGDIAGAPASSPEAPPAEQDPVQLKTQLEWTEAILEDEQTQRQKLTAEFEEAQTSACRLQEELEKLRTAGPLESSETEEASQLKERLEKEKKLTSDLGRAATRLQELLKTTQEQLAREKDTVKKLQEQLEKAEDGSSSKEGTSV
UniProt Q9P0L0: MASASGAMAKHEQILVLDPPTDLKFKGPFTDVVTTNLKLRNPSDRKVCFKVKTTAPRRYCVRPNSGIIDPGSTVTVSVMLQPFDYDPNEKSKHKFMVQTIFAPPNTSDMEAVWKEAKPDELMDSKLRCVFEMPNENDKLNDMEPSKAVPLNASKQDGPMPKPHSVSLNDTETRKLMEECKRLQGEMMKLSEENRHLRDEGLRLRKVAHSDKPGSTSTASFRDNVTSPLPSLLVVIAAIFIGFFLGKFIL
UniProt Q9NZZ3: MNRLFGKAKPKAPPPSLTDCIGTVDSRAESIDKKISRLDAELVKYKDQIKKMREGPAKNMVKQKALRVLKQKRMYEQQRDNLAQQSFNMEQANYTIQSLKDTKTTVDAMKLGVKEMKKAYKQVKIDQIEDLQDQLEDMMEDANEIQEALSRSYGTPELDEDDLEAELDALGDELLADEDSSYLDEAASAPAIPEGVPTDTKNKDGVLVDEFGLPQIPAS
UniProt Q9NXW9: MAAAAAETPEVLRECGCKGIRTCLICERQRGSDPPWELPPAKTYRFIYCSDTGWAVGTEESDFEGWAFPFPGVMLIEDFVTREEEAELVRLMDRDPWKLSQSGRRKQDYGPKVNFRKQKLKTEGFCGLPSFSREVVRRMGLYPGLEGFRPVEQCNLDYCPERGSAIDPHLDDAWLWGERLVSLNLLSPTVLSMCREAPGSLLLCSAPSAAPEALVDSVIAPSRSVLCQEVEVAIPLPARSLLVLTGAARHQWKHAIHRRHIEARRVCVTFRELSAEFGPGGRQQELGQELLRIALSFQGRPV
UniProt Q9NVN3: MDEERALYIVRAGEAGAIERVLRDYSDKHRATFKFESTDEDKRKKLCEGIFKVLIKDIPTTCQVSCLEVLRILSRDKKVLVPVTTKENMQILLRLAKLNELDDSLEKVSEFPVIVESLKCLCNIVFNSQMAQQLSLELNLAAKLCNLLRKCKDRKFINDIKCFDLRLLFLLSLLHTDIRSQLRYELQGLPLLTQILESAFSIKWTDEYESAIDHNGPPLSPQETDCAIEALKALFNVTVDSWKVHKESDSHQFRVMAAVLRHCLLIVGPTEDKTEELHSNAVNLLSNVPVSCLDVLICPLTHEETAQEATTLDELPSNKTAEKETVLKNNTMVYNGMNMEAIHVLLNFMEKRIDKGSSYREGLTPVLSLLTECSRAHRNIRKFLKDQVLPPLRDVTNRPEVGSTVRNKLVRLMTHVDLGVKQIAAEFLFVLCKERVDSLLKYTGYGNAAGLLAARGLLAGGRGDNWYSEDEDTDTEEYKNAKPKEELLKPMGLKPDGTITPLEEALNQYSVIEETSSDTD
UniProt Q9NZJ6: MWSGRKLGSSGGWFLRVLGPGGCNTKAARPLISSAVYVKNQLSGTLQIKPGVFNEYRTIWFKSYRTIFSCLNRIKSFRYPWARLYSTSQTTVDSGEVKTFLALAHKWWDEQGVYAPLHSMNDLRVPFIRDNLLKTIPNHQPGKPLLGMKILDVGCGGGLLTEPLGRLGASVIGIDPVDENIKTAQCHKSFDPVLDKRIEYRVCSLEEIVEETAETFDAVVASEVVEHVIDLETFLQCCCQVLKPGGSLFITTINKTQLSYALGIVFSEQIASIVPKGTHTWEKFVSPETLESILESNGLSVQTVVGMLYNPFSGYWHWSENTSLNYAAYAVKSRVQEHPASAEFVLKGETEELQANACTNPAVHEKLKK
UniProt Q9NXC5: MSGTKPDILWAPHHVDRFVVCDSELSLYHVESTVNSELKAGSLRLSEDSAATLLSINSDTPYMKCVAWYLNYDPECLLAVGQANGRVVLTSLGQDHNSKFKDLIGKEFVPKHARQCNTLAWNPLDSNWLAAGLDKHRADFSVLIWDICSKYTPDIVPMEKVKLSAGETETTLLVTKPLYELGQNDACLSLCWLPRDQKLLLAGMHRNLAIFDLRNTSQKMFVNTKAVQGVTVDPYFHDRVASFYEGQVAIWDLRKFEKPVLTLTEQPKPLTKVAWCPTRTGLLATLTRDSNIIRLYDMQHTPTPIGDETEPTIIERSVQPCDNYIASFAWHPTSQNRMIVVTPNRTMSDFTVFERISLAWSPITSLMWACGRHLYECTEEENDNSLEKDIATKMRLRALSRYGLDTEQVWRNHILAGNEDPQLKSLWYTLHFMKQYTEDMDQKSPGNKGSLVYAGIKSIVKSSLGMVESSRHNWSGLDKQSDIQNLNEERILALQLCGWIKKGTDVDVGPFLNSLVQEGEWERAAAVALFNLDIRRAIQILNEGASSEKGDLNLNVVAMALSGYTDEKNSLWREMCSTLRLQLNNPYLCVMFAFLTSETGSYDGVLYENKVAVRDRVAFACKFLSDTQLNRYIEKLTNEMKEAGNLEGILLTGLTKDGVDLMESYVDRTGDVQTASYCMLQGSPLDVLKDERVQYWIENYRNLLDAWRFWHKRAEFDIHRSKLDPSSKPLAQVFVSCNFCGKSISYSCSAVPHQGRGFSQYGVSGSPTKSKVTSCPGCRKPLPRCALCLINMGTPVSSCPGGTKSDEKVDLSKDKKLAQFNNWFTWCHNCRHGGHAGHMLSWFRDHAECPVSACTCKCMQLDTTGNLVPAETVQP

Target	log2 ratio of iodoacetamide-alkyne labeling
MTPAP C412 (UniProt Q9NVV4)	inactive: 0.508
LARS C100 (UniProt Q9P2J5)	inactive: 0.34
NCDN C98 (UniProt Q9UBB6)	inactive: 0.32
KCTD5 C6 (UniProt Q9NXV2)	inactive: 0.701
SACS C3756 (UniProt Q9NZJ4)	inactive: 0.593
LIMA1 C316 (UniProt Q9UHB6)	inactive: 0.139
ANKFY1 C1159 (UniProt Q9P2R3)	inactive: 0.475
ASF1B C178 (UniProt Q9NVP2)	active: 1.22
DDX18 C329 (UniProt Q9NVP1)	inactive: 0.256
UniProt Q9NW64_C48	inactive: 0.105
SRP68 C586 (UniProt Q9UHB9)	inactive: 0.198
MAT2B C297 (UniProt Q9NZL9)	inactive: 0.176
MED17 C110 (UniProt Q9NVC6)	inactive: 0.34
WWOX C382 (UniProt Q9NZC7)	inactive: 0.00878
ARL15 C53 (UniProt Q9NXU5)	inactive: 0.218
UniProt Q9P266_C1347	inactive: 0.0914
LIMD1 C401 (UniProt Q9UGP4)	inactive: 0.204
RRBP1 C933 (UniProt Q9P2E9)	inactive: 0.114
VAPA C128 (UniProt Q9P0L0)	inactive: 0.149

Fetched one by one from the list above, two records:
Target	log2 ratio of iodoacetamide-alkyne labeling
LARS C100 (UniProt Q9P2J5)	inactive: 0.34
VAPA C128 (UniProt Q9P0L0)	inactive: 0.149

Remaining list, next part.

Target	log2 ratio of iodoacetamide-alkyne labeling
UniProt Q9NWR8_C324	active: 1.65
CHMP5 C20 (UniProt Q9NZZ3)	inactive: 0.401
KCTD5 C28 (UniProt Q9NXV2)	inactive: 0.129
ANKFY1 C675 (UniProt Q9P2R3)	inactive: 0.216
ALKBH4 C194 (UniProt Q9NXW9)	inactive: -0.0775
SMPD4 C698 (UniProt Q9NXE4)	inactive: 0.247
MRPS18A C73 (UniProt Q9NVS2)	inactive: 0.11
RIC8B C373 (UniProt Q9NVN3)	inactive: 0.285
ITSN2 C810 (UniProt Q9NZM3)	inactive: 0.0149
FTSJ1 C238 (UniProt Q9UET6)	inactive: -0.0249
IFT172 C1686 (UniProt Q9UG01)	inactive: -0.0302
FAM120A C531 (UniProt Q9NZB2)	active: 1.68
NHP2 C18 (UniProt Q9NX24)	inactive: 0.438
COQ3 C186 (UniProt Q9NZJ6)	inactive: 0.427
MIOS C321 (UniProt Q9NXC5)	inactive: 0.126
MAT2B C17 (UniProt Q9NZL9)	inactive: 0.566
LARS C527 (UniProt Q9P2J5)	inactive: -0.28
TES C46 (UniProt Q9UGI8)	inactive: -0.228

— the supplement of paper PMC11006884
